This note sets out measurements from PMC11165477.

Results are given in words; binding and its absence hold for the method and conditions named. Binding seen in cells or lysates may run through a third protein. Sequences can lack the tags named with a protein.

The target in this assay is T1, AtALS3, tonoplast protein, cYFP fusion (negative control of the BiFC) (Arabidopsis) (UniProt Q9ZUT3).
T1 sequence: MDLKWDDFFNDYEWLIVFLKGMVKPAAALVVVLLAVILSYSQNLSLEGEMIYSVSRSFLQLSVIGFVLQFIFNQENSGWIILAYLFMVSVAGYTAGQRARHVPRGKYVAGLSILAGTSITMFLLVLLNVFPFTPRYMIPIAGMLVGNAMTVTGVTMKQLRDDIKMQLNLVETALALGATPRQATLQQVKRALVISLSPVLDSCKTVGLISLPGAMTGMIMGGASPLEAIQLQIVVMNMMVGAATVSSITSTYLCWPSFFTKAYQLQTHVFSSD
The assay is described as follows: split reporter; BiFC with split YFP in N. benthamiana leaves; 48 h after agroinfiltration protoplasts isolated and lysed, vacuoles imaged by confocal microscopy.

In the case of “Ma1α (full-length isoform of apple ALMT9/Ma1), split-YFP fusion for BiFC in N. benthamiana”, the binding entry is “no binding”.
